The entries are a selection whose mix differs from that of the whole data set. Calls are pooled over several reports, among them a noisy single-well screen. The list shows a part of the results.
How the values were obtained:
Details in all cases: stereoisomer not certain
OR5M11 (Homo sapiens) = molecular target: T1, OR5M11 (Homo sapiens) (UniProt Q96RB7)
T1 sequence (whole entry): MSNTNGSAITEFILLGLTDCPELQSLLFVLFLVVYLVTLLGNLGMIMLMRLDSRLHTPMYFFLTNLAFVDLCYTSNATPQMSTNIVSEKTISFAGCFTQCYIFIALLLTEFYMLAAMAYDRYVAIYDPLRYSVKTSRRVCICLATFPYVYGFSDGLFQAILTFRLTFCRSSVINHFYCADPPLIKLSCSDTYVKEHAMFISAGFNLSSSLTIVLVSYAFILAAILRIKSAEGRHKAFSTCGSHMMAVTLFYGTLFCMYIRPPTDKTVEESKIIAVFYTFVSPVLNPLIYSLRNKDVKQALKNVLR
Outline: (§1)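 Values were gathered from published papers (main text and supplementary material), with extra details requested from the original authors when needed, and checked for typos and inconsistencies. Each receptor–molecule pair is called responsive (active) if the original authors judged the measured signal statistically different from baseline, and non-responsive (inactive) otherwise. Assay methods varied by source, often transient mammalian cell-line luciferase assays. Recorded details include cell line, G-protein, co-transfected protein and tags.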

OR5M1 = test system: T2, OR5M1
T2 sequence (whole entry): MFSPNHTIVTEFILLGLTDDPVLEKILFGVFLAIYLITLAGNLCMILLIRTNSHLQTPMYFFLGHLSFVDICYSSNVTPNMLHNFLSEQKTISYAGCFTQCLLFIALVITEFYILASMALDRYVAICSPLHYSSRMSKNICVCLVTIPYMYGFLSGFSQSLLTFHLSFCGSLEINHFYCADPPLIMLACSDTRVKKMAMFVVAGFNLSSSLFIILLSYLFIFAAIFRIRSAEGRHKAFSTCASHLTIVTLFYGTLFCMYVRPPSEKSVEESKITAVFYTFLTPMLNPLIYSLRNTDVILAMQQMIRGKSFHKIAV
Outline: as §1

OR5M3 (Homo sapiens) = molecular target: T3, OR5M3 (Homo sapiens) (UniProt Q8NGP4)
T3 sequence (whole entry): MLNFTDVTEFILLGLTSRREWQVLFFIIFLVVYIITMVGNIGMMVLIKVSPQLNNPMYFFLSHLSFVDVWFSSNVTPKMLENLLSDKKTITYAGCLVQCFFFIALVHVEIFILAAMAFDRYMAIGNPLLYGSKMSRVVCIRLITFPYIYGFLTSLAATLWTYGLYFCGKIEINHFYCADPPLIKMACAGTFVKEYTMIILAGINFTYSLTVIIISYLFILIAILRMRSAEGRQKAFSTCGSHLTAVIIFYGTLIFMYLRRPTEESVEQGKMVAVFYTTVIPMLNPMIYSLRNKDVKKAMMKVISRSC
Outline: as §1

OR5M8 (Homo sapiens) = molecular target: T4, OR5M8 (Homo sapiens) (UniProt Q8NGP6)
T4 sequence (whole entry): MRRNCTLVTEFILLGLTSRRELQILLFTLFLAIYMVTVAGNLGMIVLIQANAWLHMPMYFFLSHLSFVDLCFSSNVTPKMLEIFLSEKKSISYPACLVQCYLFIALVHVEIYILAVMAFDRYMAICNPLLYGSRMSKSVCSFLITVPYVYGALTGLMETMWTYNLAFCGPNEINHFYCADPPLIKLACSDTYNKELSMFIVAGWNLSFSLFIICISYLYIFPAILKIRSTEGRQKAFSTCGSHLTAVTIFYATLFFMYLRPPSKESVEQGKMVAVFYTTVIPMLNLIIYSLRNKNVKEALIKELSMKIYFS
Outline: as §1

OR5M9 (Homo sapiens) = molecular target: T5, OR5M9 (Homo sapiens) (UniProt Q8NGP3)
T5 sequence (whole entry): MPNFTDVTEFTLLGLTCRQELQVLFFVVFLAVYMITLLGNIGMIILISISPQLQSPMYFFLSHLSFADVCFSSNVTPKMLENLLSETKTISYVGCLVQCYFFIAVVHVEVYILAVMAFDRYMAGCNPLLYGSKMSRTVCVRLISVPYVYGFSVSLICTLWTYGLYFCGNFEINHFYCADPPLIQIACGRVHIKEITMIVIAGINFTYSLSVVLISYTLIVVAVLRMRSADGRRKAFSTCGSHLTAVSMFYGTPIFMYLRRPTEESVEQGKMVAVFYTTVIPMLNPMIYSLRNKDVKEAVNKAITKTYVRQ
Outline: as §1

OR5MA = test system: T6, OR5MA
T6 sequence (whole entry): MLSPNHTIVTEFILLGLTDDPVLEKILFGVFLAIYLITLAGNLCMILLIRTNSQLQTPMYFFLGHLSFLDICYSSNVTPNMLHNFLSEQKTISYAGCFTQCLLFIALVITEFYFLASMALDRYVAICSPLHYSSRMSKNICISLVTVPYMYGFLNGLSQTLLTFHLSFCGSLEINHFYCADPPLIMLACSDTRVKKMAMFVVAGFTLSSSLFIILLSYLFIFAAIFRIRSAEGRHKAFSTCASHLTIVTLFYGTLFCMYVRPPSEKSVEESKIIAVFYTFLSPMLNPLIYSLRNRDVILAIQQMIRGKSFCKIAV
Outline: as §1

OR5P2 (Homo sapiens) = molecular target: T7, OR5P2 (Homo sapiens) (UniProt Q8WZ92)
T7 sequence (whole entry): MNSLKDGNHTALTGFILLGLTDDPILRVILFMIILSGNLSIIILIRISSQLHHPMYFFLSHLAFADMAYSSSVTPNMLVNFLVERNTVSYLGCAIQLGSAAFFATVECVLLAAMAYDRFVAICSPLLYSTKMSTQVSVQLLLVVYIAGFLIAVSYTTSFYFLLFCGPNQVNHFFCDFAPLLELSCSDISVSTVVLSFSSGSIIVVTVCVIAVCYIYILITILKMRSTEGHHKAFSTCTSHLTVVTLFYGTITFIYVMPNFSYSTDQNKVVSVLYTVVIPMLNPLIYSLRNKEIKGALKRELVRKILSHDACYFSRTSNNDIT
Outline: as §1

OR5P3 (Homo sapiens) = molecular target: T8, OR5P3 (Homo sapiens) (UniProt Q8WZ94)
T8 sequence (whole entry): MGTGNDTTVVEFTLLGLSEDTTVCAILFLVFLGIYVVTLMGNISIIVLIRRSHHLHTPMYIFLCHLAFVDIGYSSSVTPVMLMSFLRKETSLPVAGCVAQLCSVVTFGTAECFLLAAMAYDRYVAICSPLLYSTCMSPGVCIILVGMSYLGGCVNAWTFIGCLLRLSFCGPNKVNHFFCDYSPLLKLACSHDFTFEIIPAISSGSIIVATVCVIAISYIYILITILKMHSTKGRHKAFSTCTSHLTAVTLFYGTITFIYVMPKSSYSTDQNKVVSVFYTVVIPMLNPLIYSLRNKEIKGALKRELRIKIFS
Outline: as §1

OR5R1 = test system: T9, OR5R1
T9 sequence (whole entry): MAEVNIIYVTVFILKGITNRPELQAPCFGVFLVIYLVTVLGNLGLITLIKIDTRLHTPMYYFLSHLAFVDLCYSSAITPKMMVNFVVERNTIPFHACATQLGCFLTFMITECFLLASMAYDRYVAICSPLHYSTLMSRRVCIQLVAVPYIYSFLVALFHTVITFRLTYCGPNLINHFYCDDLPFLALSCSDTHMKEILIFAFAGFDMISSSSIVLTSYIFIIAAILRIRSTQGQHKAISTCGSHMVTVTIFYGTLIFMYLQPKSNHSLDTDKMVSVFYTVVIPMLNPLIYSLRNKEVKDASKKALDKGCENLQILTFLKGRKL
Outline: as §1

OR5T1 (Homo sapiens) = molecular target: T10, OR5T1 (Homo sapiens) (UniProt Q8NG75)
T10 sequence (whole entry): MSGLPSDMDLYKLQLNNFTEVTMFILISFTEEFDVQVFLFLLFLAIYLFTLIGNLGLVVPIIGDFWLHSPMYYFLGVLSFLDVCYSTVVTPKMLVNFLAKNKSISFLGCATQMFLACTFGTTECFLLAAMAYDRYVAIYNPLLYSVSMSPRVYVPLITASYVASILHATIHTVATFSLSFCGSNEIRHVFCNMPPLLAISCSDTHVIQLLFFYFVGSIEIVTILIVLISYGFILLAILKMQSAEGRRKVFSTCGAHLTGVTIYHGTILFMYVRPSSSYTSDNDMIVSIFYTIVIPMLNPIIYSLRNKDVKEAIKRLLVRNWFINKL
Outline: as §1

OR5T1 = test system: T11, OR5T1
T11 sequence (whole entry): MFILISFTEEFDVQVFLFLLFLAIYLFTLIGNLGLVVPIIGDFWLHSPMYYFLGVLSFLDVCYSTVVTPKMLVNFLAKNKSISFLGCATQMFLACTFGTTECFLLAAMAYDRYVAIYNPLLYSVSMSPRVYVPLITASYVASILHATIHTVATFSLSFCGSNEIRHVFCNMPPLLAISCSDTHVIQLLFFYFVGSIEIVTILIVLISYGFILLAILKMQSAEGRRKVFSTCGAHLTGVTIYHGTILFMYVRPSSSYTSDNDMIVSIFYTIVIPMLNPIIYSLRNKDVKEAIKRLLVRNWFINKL
Outline: as §1

OR5T2 [1] = test system: T12, OR5T2
T12 sequence (whole entry): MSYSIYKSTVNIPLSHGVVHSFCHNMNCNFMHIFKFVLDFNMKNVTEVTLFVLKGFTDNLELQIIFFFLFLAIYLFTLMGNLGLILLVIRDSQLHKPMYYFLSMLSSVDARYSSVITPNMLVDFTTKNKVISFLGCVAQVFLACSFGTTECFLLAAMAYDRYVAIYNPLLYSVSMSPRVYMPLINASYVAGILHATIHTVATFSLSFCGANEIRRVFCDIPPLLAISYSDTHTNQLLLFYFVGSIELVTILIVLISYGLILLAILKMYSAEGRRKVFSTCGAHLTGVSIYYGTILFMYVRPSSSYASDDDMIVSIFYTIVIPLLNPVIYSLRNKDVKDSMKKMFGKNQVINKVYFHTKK
Outline: as §1

OR5T2 [2] = test system: T13, OR5T2; remark: listed apart in the source
T13 sequence (whole entry): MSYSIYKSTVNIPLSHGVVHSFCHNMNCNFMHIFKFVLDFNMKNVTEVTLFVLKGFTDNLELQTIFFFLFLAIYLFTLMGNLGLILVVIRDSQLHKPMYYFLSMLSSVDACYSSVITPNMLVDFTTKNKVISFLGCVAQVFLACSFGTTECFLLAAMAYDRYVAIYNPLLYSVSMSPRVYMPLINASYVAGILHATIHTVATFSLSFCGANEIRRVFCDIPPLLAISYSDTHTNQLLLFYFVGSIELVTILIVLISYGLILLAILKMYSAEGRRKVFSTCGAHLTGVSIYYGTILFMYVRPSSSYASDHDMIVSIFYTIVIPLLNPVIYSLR
Outline: as §1

OR5T3 = test system: T14, OR5T3
T14 sequence (whole entry): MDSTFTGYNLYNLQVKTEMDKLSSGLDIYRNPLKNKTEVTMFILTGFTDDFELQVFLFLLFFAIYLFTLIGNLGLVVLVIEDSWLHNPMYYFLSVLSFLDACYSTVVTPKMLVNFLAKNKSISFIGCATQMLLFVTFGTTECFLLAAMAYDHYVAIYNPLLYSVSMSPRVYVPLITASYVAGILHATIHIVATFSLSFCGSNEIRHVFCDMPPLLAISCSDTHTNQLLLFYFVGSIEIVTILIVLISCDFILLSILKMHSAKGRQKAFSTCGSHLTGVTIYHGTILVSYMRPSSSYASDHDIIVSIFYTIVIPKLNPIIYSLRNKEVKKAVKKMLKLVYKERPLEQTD
Outline: as §1

OR5V1 (Homo sapiens) = molecular target: T15, OR5V1 (Homo sapiens) (UniProt Q9UGF6)
T15 sequence (whole entry): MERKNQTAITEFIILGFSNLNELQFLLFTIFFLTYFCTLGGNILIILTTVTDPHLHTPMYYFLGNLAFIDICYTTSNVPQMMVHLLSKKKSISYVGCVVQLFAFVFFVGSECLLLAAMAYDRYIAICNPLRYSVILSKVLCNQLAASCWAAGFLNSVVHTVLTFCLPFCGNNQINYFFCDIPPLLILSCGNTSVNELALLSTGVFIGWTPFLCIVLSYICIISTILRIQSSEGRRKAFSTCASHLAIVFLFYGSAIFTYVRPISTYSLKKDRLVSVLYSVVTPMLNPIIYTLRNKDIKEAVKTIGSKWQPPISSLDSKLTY
Outline: as §1

OR5W2 = test system: T16, OR5W2
T16 sequence (whole entry): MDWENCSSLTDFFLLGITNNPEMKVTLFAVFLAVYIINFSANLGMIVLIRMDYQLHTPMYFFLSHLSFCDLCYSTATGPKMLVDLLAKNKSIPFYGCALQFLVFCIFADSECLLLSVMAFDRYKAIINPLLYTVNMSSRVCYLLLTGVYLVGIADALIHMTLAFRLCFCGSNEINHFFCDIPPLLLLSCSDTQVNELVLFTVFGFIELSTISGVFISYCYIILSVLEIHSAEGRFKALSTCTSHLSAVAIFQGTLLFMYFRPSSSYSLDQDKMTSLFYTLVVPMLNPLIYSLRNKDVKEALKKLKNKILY
Outline: as §1

OR6A2 (Homo sapiens) = molecular target: T17, OR6A2 (Homo sapiens) (UniProt O95222)
T17 sequence (whole entry): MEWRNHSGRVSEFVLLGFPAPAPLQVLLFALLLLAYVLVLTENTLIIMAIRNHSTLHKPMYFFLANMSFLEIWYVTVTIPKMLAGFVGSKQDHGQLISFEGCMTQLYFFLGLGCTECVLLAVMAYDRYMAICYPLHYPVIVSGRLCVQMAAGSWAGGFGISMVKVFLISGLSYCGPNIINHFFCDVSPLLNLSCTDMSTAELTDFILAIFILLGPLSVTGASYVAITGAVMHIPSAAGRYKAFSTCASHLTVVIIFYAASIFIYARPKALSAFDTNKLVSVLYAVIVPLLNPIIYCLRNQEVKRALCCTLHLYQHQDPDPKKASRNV
Outline: as §1

Row | SMILES | odorant receptor agonist call (OR5M11 (Homo sapiens)) | odorant receptor agonist call (OR5M1) | odorant receptor agonist call (OR5M3 (Homo sapiens)) | odorant receptor agonist call (OR5M8 (Homo sapiens)) | odorant receptor agonist call (OR5M9 (Homo sapiens)) | odorant receptor agonist call (OR5MA) | odorant receptor agonist call (OR5P2 (Homo sapiens)) | odorant receptor agonist call (OR5P3 (Homo sapiens)) | odorant receptor agonist call (OR5R1) | odorant receptor agonist call (OR5T1 (Homo sapiens)) | odorant receptor agonist call (OR5T1) | odorant receptor agonist call (OR5T2 [1]) | odorant receptor agonist call (OR5T2 [2]) | odorant receptor agonist call (OR5T3) | odorant receptor agonist call (OR5V1 (Homo sapiens)) | odorant receptor agonist call (OR5W2) | odorant receptor agonist call (OR6A2 (Homo sapiens))
1 | CCCCCCCC=CC=O | inactive | inactive | inactive | inactive | inactive | inactive | inactive | inactive | inactive | inactive | active | inactive | inactive | inactive | inactive | active | inactive
2 | CC1=CCC(C(C)(C)O)CC1 (centres undefined) | inactive | inactive | inactive | inactive | inactive | inactive | inactive | active | inactive | inactive | inactive | inactive | inactive | inactive | inactive | inactive | inactive
